Measured values: paper PMC2373309
Results are given in words; binding and its absence hold for the method and conditions named. Binding seen in cells or lysates may run through a third protein. Sequences can lack the tags named with a protein.

By UniProt entry, the sequences of proteins in these tests, tags left out. Residues count along the entry.
UniProt P11362, residues 22-822: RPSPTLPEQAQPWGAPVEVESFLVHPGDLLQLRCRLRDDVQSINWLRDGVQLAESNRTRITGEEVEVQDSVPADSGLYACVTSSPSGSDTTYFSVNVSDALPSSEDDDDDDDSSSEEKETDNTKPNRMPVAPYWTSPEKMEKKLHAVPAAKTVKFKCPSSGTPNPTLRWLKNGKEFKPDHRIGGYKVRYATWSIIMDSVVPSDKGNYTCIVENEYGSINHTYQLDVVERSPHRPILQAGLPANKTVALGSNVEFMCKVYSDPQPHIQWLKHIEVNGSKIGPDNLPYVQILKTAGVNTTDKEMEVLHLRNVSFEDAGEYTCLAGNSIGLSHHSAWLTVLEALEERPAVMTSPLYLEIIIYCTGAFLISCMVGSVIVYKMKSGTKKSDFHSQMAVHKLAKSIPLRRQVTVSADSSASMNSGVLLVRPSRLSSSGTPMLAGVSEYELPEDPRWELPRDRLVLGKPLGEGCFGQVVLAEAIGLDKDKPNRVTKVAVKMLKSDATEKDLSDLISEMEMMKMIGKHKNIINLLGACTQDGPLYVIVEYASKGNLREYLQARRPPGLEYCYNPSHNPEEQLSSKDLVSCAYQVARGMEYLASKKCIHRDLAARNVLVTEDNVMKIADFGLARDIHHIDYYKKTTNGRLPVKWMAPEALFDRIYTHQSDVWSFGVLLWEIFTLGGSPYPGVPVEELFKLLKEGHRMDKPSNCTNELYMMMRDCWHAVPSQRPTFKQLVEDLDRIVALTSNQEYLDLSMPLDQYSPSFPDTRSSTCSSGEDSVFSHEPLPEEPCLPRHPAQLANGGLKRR

Biological target: FGFR1 (UniProt P11362)
Experiment: co-IP; lysates from Cos-1 cells transiently co-transfected; immunoprecipitation with anti-FGFR1 antibody, western blot with anti-CAP350 antibody; NP40 1% lysis buffer

binding | Molecule
no binding | Myc-tagged CAP350 (AA 1-3117) (from UniProt Q5VT06 1-3117)
no binding | Myc-tagged CAP350 C-terminal domain (AA 1896-3117) (domain or fragment, UniProt Q5VT06 1896-3117) ALAAWDKELIKPKTPKKELEDQRTEQKEIASEEESPVPLYSHLNSESSIPEELGSPAVEYVPSESIGQEQPGSPDHSILTEEMICSQELESSTSPSKHSLPKSCTSVSKQESSKGSHRTGGQCHLPIKSHQHCYSWSDESLSMTQSETTSDQSDIEGRIRALKDELRKRKSVVNQLKKEQKKRQKERLKAQEASLIKQLESYDEFIKKTEAELSQDLETSPTAKPQIKTLSSASEKPKIKPLTPLHRSETAKNWKSLTESERSRGSLESIAEHVDASLSGSERSVSERSLSAYAKRVNEWDSRTEDFQTPSPVLRSSRKIREESGDSLENVPALHLLKELNATSRILDMSDGKVGESSKKSEIKEIEYTKLKKSKIEDAFSKEGKSDVLLKLVLEQGDSSEILSKKDLPLDSENVQKDLVGLAIENLHKSEEMLKERQSDQDMNHSPNIQSGKDIHEQKNTKEKDLSWSEHLFAPKEIPYSEDFEVSSFKKEISAELYKDDFEVSSLLSLRKDSQSCRDKPQPMRSSTSGATSFGSNEEISECLSEKSLSIHSNVHSDRLLELKSPTELMKSKERSDVEHEQQVTESPSLASVPTADELFDFHIGDRVLIGNVQPGILRFKGETSFAKGFWAGVELDKPEGNNNGTYDGIAYFECKEKHGIFAPPQKISHIPENFDDYVDINEDEDCYSDERYQCYNQEQNDTEGPKDREKDVSEYFYEKSLPSVNDIEASVNRSRSLKIETDNVQDISGVLEAHVHQQSSVDSQISSKENKDLISDATEKVSIAAEDDTLDNTFSEELEKQQQFTEEEDNLYAEASEKLCTPLLDLLTREKNQLEAQLKSSLNEEKKSKQQLEKISLLTDSLLKVFVKDTVNQLQQIKKTRDEKIQLSNQELLGDDQKKVTPQDLSQNVEEQSPSISGCFLSSELEDEKEEISSPDMCPRPESPVFGASGQEELAKRLAELELSREFLSALGDDQDWFDEDFGLSSSHKIQKNKAEETIVPLMAEPKRVTQQPCETLLAVPHTAEEVEILVHNAAEELWKWKELGHDLHSISIPTKLLGCASKGLDIESTSKRVYKQAVFDLTKEIFEEIFAEDPNLNQPVWMKPCRINSSYFRRVKNPNNLDEIKSFIASEVLKLFSLKKEPNHKTDWQKMMKFGRKKRDRVDHILVQELHEEEAQWVNYDEDELCVKMQLADGIFETLIKDTIDVLNQISEKQGRMLLV
